# Reference: PubChem BioAssay AID2685 (National Center for Advancing Translational Sciences (NCATS), 2010)
# The other results are listed elsewhere or left out. These are further read-outs of the screen, such as a control signal, another cell line or another target. No call is given for them. The list favours compounds with an active or inconclusive main result. The note in brackets gives the kind of curve behind each potency; many fits are weak.
# Experiment: qHTS Assay for Lipid Storage Modulators in Drosophila S3 Cells;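 as to cell number change: cells counted by Cell Tracker Red CMTPX staining in the red channel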
# Conditions: BODIPY lipid droplet fluorescence, 18-24 h; for cell number change: measured here: cell count max response, cells fed with added oleic acid
# How it was run: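 Drosophila S3 cells loaded with oleic acid (400 uM, as added) and compounds at several concentrations; lipid droplets imaged by 488-nm laser-scanning cytometry, 500–530 nm intensity and object ratio to cell channel. Percent activity normalized to 20 uM Triacsin C.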
# [1] = measured here: cell number channel AC50, cells fed with added oleic acid
# [2] = measured here: lipid fluorescence (Fed channel) AC50, cells fed with added oleic acid
smiles,measurement,setting,value
Cc1ccc(S(=O)(=O)N2CCCCC2)cc1NC(=O)CSc1nnc(N)s1,AC50,[1],"5.8 µM [rising, single point]"
same,AC50,[2],"5.8 µM [rising, single point]"
CCCn1c(N)c(N(CCOC)C(=O)c2cccc(C(F)(F)F)c2)c(=O)[nH]c1=O,cell number change,,-9.21%
same,AC50,[2],"35.5 µM [falling, single point]"
O=C(Nc1cc(S(=O)(=O)N2CCOCC2)ccc1Cl)c1cc2ccccc2o1,cell number change,,10.7%
same,AC50,[2],"6.51 µM [falling, partial curve]"
CCOCCCNC(=O)C(c1ccc(OC)cc1)N(Cc1ccc2c(c1)OCO2)C(=O)c1cnccn1 (stereo not given),cell number change,,113%
same,AC50,[1],"0.411 µM [rising, single point]"
same,AC50,[2],"1.84 µM [rising, full curve]"
CS(=O)(=O)N1CCN=C1SCc1ccccc1,AC50,[2],"4.11 µM [rising, full curve]"
Cc1cc2cc(CN(CC3CCCO3)C(=S)NCc3ccco3)c(=O)[nH]c2cc1C (stereo not given),cell number change,,13.5%
same,AC50,[2],"0.411 µM [rising, full curve, poor fit]"
CCCC(=O)Nc1ccc(N2CCN(C(=O)c3cccs3)CC2)cc1,cell number change,,27.1%
same,AC50,[1],"0.58 µM [rising, full curve, poor fit]"
S=C(NCc1cccnc1)Nc1ccc(Cl)cc1Cl,cell number change,,132%
CCCc1cc(=O)[nH]c(SCC(=O)N(CC)Cc2ccccc2)n1,cell number change,,1.32%
same,AC50,[1],"0.231 µM [falling, full curve, poor fit]"
same,AC50,[2],"0.0058 µM [falling, full curve, poor fit]"
CN1CCN(c2ccc(NC(=O)COc3ccc4ccccc4c3)cc2)CC1,cell number change,,-15.8%
Cc1ccc(N(CC(=O)NC(C)(C)C)C(=O)CNC(=O)c2cccs2)cc1C,cell number change,,37.1%
same,AC50,[1],"0.103 µM [rising, full curve, poor fit]"
CC(=O)N(C)C1(c2nnnn2CCOC(=O)Nc2cccc3ccccc23)CCCC1,AC50,[2],"2.31 µM [rising, partial curve]"
O=C1COc2ccc(C(=O)CCl)cc2N1,cell number change,,-49.3%
same,AC50,[1],"32.6 µM [falling, partial curve, poor fit]"
same,AC50,[2],"0.0058 µM [falling, full curve, poor fit]"
O=c1c2c(nc3cc(-c4ccccc4)[nH]n13)CCC2,cell number change,,-4.17%
same,AC50,[2],"11.6 µM [falling, partial curve]"
CC(C)CNC(=O)c1cc(-c2ccc(Cl)c(Cl)c2)on1,cell number change,,0.789%
same,AC50,[2],"3.66 µM [falling, single point]"
COc1ccc(-c2oc3cccnc3c2/C=C/c2ccc(OC)c(OC)c2)cc1,cell number change,,1.62%
same,AC50,[2],"20.6 µM [falling, single point]"
O=C(NCCc1ccccn1)c1ccc2nc(Cc3ccccc3F)oc2c1,cell number change,,4.69%
same,AC50,[2],"0.366 µM [falling, full curve]"
CNC(=S)N/N=C/c1c(Cl)cccc1Cl,cell number change,,38.9%
same,AC50,[1],"5.8 µM [rising, partial curve]"
Cc1ccc(C(=O)C2Oc3ccccc3C3CC(c4ccc(C)cc4)=NN23)cc1 (stereo not given),cell number change,,7.27%
same,AC50,[2],"14.6 µM [rising, partial curve]"
Cc1ccc(CNC(=O)C2CCCCC2C(=O)O)cc1 (stereo not given),cell number change,,5.93%
CN1CCN(c2ccc(NC(=O)COc3ccccc3)cc2Cl)CC1,cell number change,,-25.7%
CCCCc1cc(=O)oc2cc(OCC(=O)N3CCc4ccccc43)ccc12,cell number change,,27.2%
same,AC50,[2],"6.51 µM [rising, partial curve, poor fit]"
O=S(=O)(c1ccccc1)c1nnn2c1nc(NC1CCN(Cc3ccccc3)CC1)c1cc(Cl)ccc12,AC50,[2],"11.6 µM [falling, partial curve]"
O=C(Cn1cnc2ccccc2c1=O)Nc1ccc(N2CCOCC2)cc1,cell number change,,1.49%
COc1ccccc1NS(=O)(=O)c1cc(NC(=O)C(C)C)ccc1N1CCCCC1,cell number change,,47.2%
CCCOc1cc(C)c(S(=O)(=O)n2nnc3ccccc32)cc1C,cell number change,,-25.3%
same,AC50,[2],"16.4 µM [falling, single point]"
COc1ccc(OC)c(/C=N/Nc2nc(C)cc(=O)[nH]2)c1,cell number change,,17.1%
same,AC50,[2],"0.651 µM [falling, full curve, poor fit]"
CCN1C=C(Cc2cccs2)C2=C(C1)C(c1cccs1)C(C#N)=C(N)O2 (stereo not given),cell number change,,-21.1%
same,AC50,[2],"1.64 µM [rising, partial curve]"
O=C(O)CSc1nc(-c2ccccc2)cc(=O)[nH]1,cell number change,,-14.8%
same,AC50,[1],"0.0326 µM [falling, full curve, poor fit]"
COc1ccc(-n2c(Cc3cccn3C)nnc2SCC(=O)Nc2ccc(C(C)=O)cc2)cc1,cell number change,,94.1%
same,AC50,[1],"29.1 µM [rising, single point]"
same,AC50,[2],"29.1 µM [rising, single point]"
O=C(Nc1ccc2[nH]c(=O)[nH]c2c1)c1ccc(Cl)c(Cl)c1,cell number change,,-4.86%
same,AC50,[1],"0.517 µM [rising, full curve, poor fit]"
Fc1ccccc1CNCCC(Cc1ccccc1)c1ccc2c(c1)OCO2 (stereo not given),cell number change,,-61.4%
same,AC50,[1],"20.6 µM [falling, single point]"
same,AC50,[2],"16.4 µM [falling, partial curve]"
C=CCSc1nccc(-c2nn(-c3ccc(C)cc3)ccc2=O)n1,cell number change,,-27.9%
NS(=O)(=O)c1ccc(N/N=C/c2ccccc2Br)cc1,cell number change,,13.3%
same,AC50,[2],"6.51 µM [rising, partial curve, poor fit]"
COc1cccc(C2/C(=C(/O)c3ccc4c(c3)CC(C)O4)C(=O)C(=O)N2CCCn2ccnc2)c1 (stereo not given),cell number change,,10.7%
O=S(=O)(Nc1ccccc1F)c1ccc(Cl)nc1,cell number change,,16.6%
same,AC50,[2],"1.84 µM [rising, full curve]"
O=C(NC1CCCC1)C(c1ccco1)N(C(=O)c1csnn1)c1ccccc1 (stereo not given),cell number change,,-21.9%
same,AC50,[2],"0.206 µM [rising, single point]"
CC(=O)c1ccc(OCCCC(=O)Nc2ccc3c(c2)OCCO3)cc1,cell number change,,-14.2%
same,AC50,[2],"6.51 µM [falling, full curve, poor fit]"
CC(=O)c1ccc(S(=O)(=O)N2CCN(C(=O)CSc3ccc(C)c(C)c3)CC2)cc1,cell number change,,4.62%
COc1ccc(C(Nc2ccccn2)c2oc(CO)cc(=O)c2O)cc1 (stereo not given),cell number change,,-0.609%
same,AC50,[1],"6.51 µM [falling, single point]"
same,AC50,[2],"6.51 µM [falling, single point]"
OC(c1ccc(F)cc1)(C1CCCCC1)C(CN1CCOCC1)c1ccccc1 (stereo not given),cell number change,,3.28%
same,AC50,[2],"29.1 µM [rising, single point]"
CC1(C)CC(NC(=S)Nc2ccc(S(N)(=O)=O)cc2)CC(C)(C)N1,cell number change,,10%
Cc1ccc(S(=O)(=O)n2cnc3cc([N+](=O)[O-])ccc32)c(C)c1,AC50,[2],"2.31 µM [rising, partial curve]"
CCN1CCN(C(=O)c2c(-c3ccccc3)noc2C)CC1,cell number change,,8.33%
COc1ccc(C)cc1NC(=O)n1ncc2cc(Cl)ccc21,cell number change,,-17.7%
O=C(NC1CCCC1)c1nc2c(nnn2Cc2cccc(Cl)c2)c(=O)[nH]1,cell number change,,33.5%
CN1CC(=O)N=C1N,cell number change,,0.872%
same,AC50,[2],"29.1 µM [falling, single point]"
CC(CC(C)C(=O)N1CCOCCN(C(=O)C(C)CC(C)C(=O)O)CCOCC1)C(=O)O (stereo not given),cell number change,,-1.75%
same,AC50,[1],"0.146 µM [rising, full curve, poor fit]"
same,AC50,[2],"20.6 µM [falling, partial curve]"
CCN(CC)S(=O)(=O)c1ccc(N2CCCC2)c(NC(=O)Cc2ccc(OC)cc2)c1,cell number change,,7.09%
same,AC50,[1],"2.06 µM [rising, partial curve]"
same,AC50,[2],"0.58 µM [rising, single point]"
Cc1cc(NC(=O)CN2CCC(n3nnc4cc(C(F)(F)F)ccc43)CC2)no1,cell number change,,-17.8%
same,AC50,[2],"13 µM [rising, single point]"
CCOC(=O)Cc1csc(NC(=O)NC2(C(F)(F)F)Oc3ccccc3O2)n1,cell number change,,-30.8%
same,AC50,[1],"32.6 µM [falling, single point]"
CCc1ccc(-c2cc3c(=O)n(CC(=O)NCCCN4CCN(CC)CC4)nc(C)n3n2)cc1,cell number change,,12.8%
same,AC50,[2],"6.51 µM [rising, partial curve, poor fit]"
O=C(Nc1ccccc1)NC1(C(=O)NCc2ccc3c(c2)OCO3)CCCCC1,cell number change,,11.4%
same,AC50,[1],"0.164 µM [falling, full curve, poor fit]"
CN(C)c1cccc2c(/C=N/O)ccc(N(C)C)c12,cell number change,,-38%
same,AC50,[1],"29.1 µM [falling, single point]"
Clc1cc2c(c(CSc3nc4ccccc4n4cccc34)c1)OCOC2,cell number change,,-56.5%
same,AC50,[1],"32.6 µM [falling, partial curve, poor fit]"
same,AC50,[2],"0.411 µM [rising, full curve]"
CC(OC(=O)c1cc(Br)ccc1O)C(=O)Nc1ccc(S(=O)(=O)N2CCCC2)cc1 (stereo not given),cell number change,,-33.8%
same,AC50,[1],"13 µM [falling, partial curve]"
CC(=O)NCc1nc2ccccc2n1Cc1ccccc1C,AC50,[1],"6.51 µM [falling, single point]"
O=c1[nH]c(SCc2nc3ccccc3n2Cc2ccccc2)nc2ccccc12,cell number change,,-132%
same,AC50,[1],"5.17 µM [falling, single point]"
NCCN1CCN(CCN)CC1,cell number change,,-109%
same,AC50,[1],"23.1 µM [falling, single point]"
same,AC50,[2],"11.6 µM [falling, partial curve]"
O=C(OCCN1C(=O)c2cccc3c(N4CCOCC4)ccc(c23)C1=O)c1cccc(Cl)c1,cell number change,,-48%
same,AC50,[1],"23.1 µM [falling, single point]"
COc1ccccc1NC(=O)Cn1c(=O)n(-c2ccccc2)c(=O)c2oc3ccccc3c21,cell number change,,16.6%
CNC(=O)n1ccc(C(=O)N2CCCCC2)n1,cell number change,,-11.2%
same,AC50,[2],"1.16 µM [falling, partial curve]"

# Part of the list above, with bars between the fields:
smiles | measurement | setting | value
CC(=O)c1ccc(S(=O)(=O)N2CCN(C(=O)CSc3ccc(C)c(C)c3)CC2)cc1 | cell number change |  | 4.62%
COc1ccc(C(Nc2ccccn2)c2oc(CO)cc(=O)c2O)cc1 (stereo not given) | cell number change |  | -0.609%
same | AC50 | [1] | 6.51 µM [falling, single point]
same | AC50 | [2] | 6.51 µM [falling, single point]
OC(c1ccc(F)cc1)(C1CCCCC1)C(CN1CCOCC1)c1ccccc1 (stereo not given) | cell number change |  | 3.28%
same | AC50 | [2] | 29.1 µM [rising, single point]
CC1(C)CC(NC(=S)Nc2ccc(S(N)(=O)=O)cc2)CC(C)(C)N1 | cell number change |  | 10%
